Data as given in the supplement of paper PMC10338343.
± gives the standard deviation. Only a part is listed here, and it is no random draw. Many of these values have a large error.

System: MILI (PIWIL2) piRISC loaded with piRNA #2 (26 nt)
Assay: pre-steady-state target cleavage rate (min^-1); MIWI and MILI are mouse PIWI proteins and EfPiwi is from a freshwater sponge; tags in brackets are library labels; higher = faster piRNA-guided slicing of the target
Settings: guide: piRNA #2 5'p-UUAGGUAACCCAGUAGAUCCAGAGGA; auxiliary factor: 500 nM mouse GTSF1
How it was run: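 Cleave-'n-Seq: 1 nM active affinity-purified piRISC with one synthetic guide and 0.1 nM transcribed, DNA-blocked target RNA library were mixed, with or without 500 nM GTSF1 partner protein, in HEPES–potassium acetate buffer at 33 °C for 0–8 or 0–960 min. Uncleaved targets were sequenced and normalised to depth and to weakly complementary targets, three trials were pooled, and k3 was capped at 0.0001 min^-1. The pre-steady-state cleavage rate was fitted […].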

Sequence	pre-steady-state target cleavage rate
CUUAAGGAGACCUUCUACUGCGUAACCUAA	0.000281 ± 0.02
CUUAAGGAGACCUAGAUGUGGGUUAACUAA	0.000413 ± 0.015
CUUAAGGACUGGAUACUACUGGGUUACCUAA	0.00387 ± 0.0093
CUUAUCCUCUGGUUCUACUGCGUUACCUAA	0.0261 ± 0.0078
CUUAAGGAGACGAUCUACUGUGGUUACCUAA	0.000747 ± 0.0091
CUUAAGGUCUGGAUCUACUGGCUUACCUUA	0.000539 ± 0.012
CUUAAGGAGACCUAGAUGACCCAUACCUAA	0.000114 ± 0.019
CUUAAGGAGACCUAGUGACUGGGUUACCUAA	0.000179 ± 0.051
CUUAAGCUCUCGAUCUACUGGGUUACCUAA	0.113 ± 0.019
CUUAAGGAGACCAUCUACUGAGGUUACCUAA	0.00114 ± 0.0076
CUUAAGGAGACCAUCUACUGGGUUACCUCA	0.000712 ± 0.011
CUUAAGGAGAGGAUCGACUGGGUUACCUAA	0.00355 ± 0.0063
CUUAACGUCUGGAUCUACUGGCUUACCUAA	0.00146 ± 0.0084
CUUAAGGAGACCAUCUACGUGGGUUACCUAA	0.000495 ± 0.018
CUUAAGGAGACCUUCUACUCCGUUACCUAA	0.000343 ± 0.026
CUUAACCUCUGGAUCUACUGGGUUACCUUA	0.111 ± 0.026
CUUAAGGAGACCUACUACUGGGUUUACCUAA	0.000549 ± 0.014
CUUAAGGAGAGGAUAUACUGGGUUACCUAA	0.00364 ± 0.0039
CUUAAGCUCUGGAUCUACUCGGUUACCAAA	0.00146 ± 0.0074
CUUAAGGAGACGAAUCUACUGGGUUACCUAA	0.00134 ± 0.0062
CUUAAGGAGACCAUCUACUGAGUUACCUAA	0.00246 ± 0.0054
CUUAAGGAGACGAUCUACUGGGAAUCCUAA	0.000278 ± 0.018
CUUAAGGAGUGGUUCUACUGGGUUACGUAA	0.000827 ± 0.01
CUUAUCCUCUGGAUCUACUGGCUUACCAAA	0.00073 ± 0.011

Sequence	pre-steady-state target cleavage rate
CUUAAGGAGUGGAUCUACUUGGGUUACCUAA	0.000828 ± 0.0091
CUUAAGGAGACGAUCUAGUGGGUUACCUAA	0.00154 ± 0.0044
CUUAAGGAGACCUAGAUCUUGGGUUACCUAA	0.00055 ± 0.013
CUUAAGGACUGGUUCUACUGGGUUACGUAA	0.00215 ± 0.014
CUUAAGGAGACGAUCUUCUGGCUUACCUAA	0.000681 ± 0.0072
CUUAACCUCUGGGUCUACUGGGUUACCUAA	0.169 ± 0.029
CUUAAGGAGUCGAUCUACUGGGUAACCUAA	0.00162 ± 0.0098
CUUAAGGAGACCUAGAUGUGGGUAACCUUA	0.000247 ± 0.033
CUUAAGGAGAGGUAGUACUGGGUUACCUAA	0.000574 ± 0.014
CUUAAGGAGAGGUUCUACUGGGAUACCUAA	0.00148 ± 0.0039
CUUAAGGAGACCUUCUACUGCGUUACCUAA	0.000801 ± 0.013
CUUAAGGAGACCUAGAUGAGGGUUACCUAG [g2:g11:cont:t1G]	0.00048 ± 0.02
CUUAAGGACUGGAUUACUGGGUUACCUAA	0.000819 ± 0.034
CUUAAGGUCACCAUCUACUGGGUUACCUAA	0.000945 ± 0.0085
CUUAAGGUCAGGAUCUACUGGGAUACCUAA	0.00648 ± 0.0073
CUUAAGGAGACGAUCAACUGCGUUACCUAA	0.000538 ± 0.011
CUUAAGGAGACCUUCUACUGGGUUACCAUAA	0.000495 ± 0.022
CUUAAGGAGACCAUCUAGUGGCUUACCUAA	0.000284 ± 0.016
CUUAAGGAGAGGAUUACUGGGUUACCUAA	0.00101 ± 0.01
CUUAUCCUCUGGAUCUACUCCCAAUGGAUA [g12:g26:cont:t1A]	0.000398 ± 0.019
CUUAAGGUCUGGAUCUAGCUGGGUUACCUAA	0.000358 ± 0.016
CUUAACCUCUGGCAUCUACUGGGUUACCUAA	2.04 ± 1.1
CUUAACCUCUGGAUCUACUCGGUUACGUAA	0.000248 ± 0.046
CUUAAGGAGACCUACUACUGCGGUUACCUAA	0.000208 ± 0.02

Given bar-delimited: entries from further up
Sequence | pre-steady-state target cleavage rate
CUUAAGGAGACCAUCUACUGAGGUUACCUAA | 0.00114 ± 0.0076
CUUAAGGAGACCAUCUACUGGGUUACCUCA | 0.000712 ± 0.011
CUUAAGGAGAGGAUCGACUGGGUUACCUAA | 0.00355 ± 0.0063
CUUAACGUCUGGAUCUACUGGCUUACCUAA | 0.00146 ± 0.0084
CUUAAGGAGACCAUCUACGUGGGUUACCUAA | 0.000495 ± 0.018
CUUAAGGAGACCUUCUACUCCGUUACCUAA | 0.000343 ± 0.026
CUUAACCUCUGGAUCUACUGGGUUACCUUA | 0.111 ± 0.026
CUUAAGGAGACCUACUACUGGGUUUACCUAA | 0.000549 ± 0.014
CUUAAGGAGAGGAUAUACUGGGUUACCUAA | 0.00364 ± 0.0039
CUUAAGCUCUGGAUCUACUCGGUUACCAAA | 0.00146 ± 0.0074
CUUAAGGAGACGAAUCUACUGGGUUACCUAA | 0.00134 ± 0.0062
CUUAAGGAGACCAUCUACUGAGUUACCUAA | 0.00246 ± 0.0054
CUUAAGGAGACGAUCUACUGGGAAUCCUAA | 0.000278 ± 0.018
CUUAAGGAGUGGUUCUACUGGGUUACGUAA | 0.000827 ± 0.01
CUUAUCCUCUGGAUCUACUGGCUUACCAAA | 0.00073 ± 0.011
CUUAAGGAGUGGAUCUACUUGGGUUACCUAA | 0.000828 ± 0.0091
CUUAAGGAGACGAUCUAGUGGGUUACCUAA | 0.00154 ± 0.0044
CUUAAGGAGACCUAGAUCUUGGGUUACCUAA | 0.00055 ± 0.013
CUUAAGGACUGGUUCUACUGGGUUACGUAA | 0.00215 ± 0.014
CUUAAGGAGACGAUCUUCUGGCUUACCUAA | 0.000681 ± 0.0072
CUUAACCUCUGGGUCUACUGGGUUACCUAA | 0.169 ± 0.029
CUUAAGGAGUCGAUCUACUGGGUAACCUAA | 0.00162 ± 0.0098

(next part)

Sequence	pre-steady-state target cleavage rate
CUUAAGGACAGGAUCUUCUGGGUUACCUAA	0.00551 ± 0.0093
CUUAAGGAGACCUAGUACUGGGUUACCUAC [g2:g15:cont:t1C]	0.000251 ± 0.032
CUUAACCUCUUGGAUCUACUGGGUUACCUAA	0.245 ± 0.072
CUUAAGGAGAGGAUCUAGAGGGUUACCUAA	0.000349 ± 0.016
CUUAUCCUCUGGAUCUACUGGUGUUACCUAA	0.00226 ± 0.0057
CUUAAGGAGACCAUCUACUGGGUUCCUAA	0.000274 ± 0.021
CUUAAGGAGACCUAGAUGUAGGUUACCUAA	0.000214 ± 0.039
CUUAAGGACUGGAACUUCUGGGUUACCUAA	0.000917 ± 0.018
CUUAAGGAGACCUUCUACAGGGUUAGCUAA	0.000914 ± 0.012
CUUAAGGAGACGAUCUAGUGGGUUACGUAA	0.000368 ± 0.015
CUUAACCUCUGGAUCUACUGGGUAUGGAUA [g8:g25:cont:t1A]	0.000301 ± 0.034
CUUAAGGAGACCAUCUACUGGCUUACGUAA	0.000289 ± 0.033
CUUAAGGACUGGAUCUACUGGGUUCACCUAA	0.00434 ± 0.01
CUUAAGGAGAGGAUCUACUUGGUUACCUAA	0.00126 ± 0.008
CUUAAGGAGACGAUCUACAUGGGUUACCUAA	0.000728 ± 0.013
CUUAAGGAGACCAUCUACUGGGUUACCAUA	0.00091 ± 0.01
CUUAAGCUCUGGAGCUACUGGGUUACCUAA	0.0783 ± 0.014
CUUAAGGAGACCUAGUAUCUGGGUUACCUAA	0.000283 ± 0.029
CUUAAGGAGACCUUCAACAGGGUUACCUAA	0.00032 ± 0.022
CUUAAGCUCUGGAUCUACAGGGUUACGUAA	0.0394 ± 0.01
CUUAAGGAGACCUAGUACUGGGUUACCUUAA	0.000313 ± 0.028
CUUAAGGAGACCUUCUACUGGGUAUGCUAA	0.000285 ± 0.032
CUUAAGGAGAGGAUGUACUGGGAUACCUAA	0.000307 ± 0.028
CUUAACCUCUGGAUCUACUGGGUUAGGAUA [g6:g25:cont:t1A]	0.00129 ± 0.0089
